The other results are listed elsewhere or left out. Shown are side measurements of this screen, not its main read-out; they come without a call. Compounds called inactive in the main read-out are mostly missing here. The note in brackets gives the kind of curve behind each potency; many fits are weak.
Test: qHTS Assay for Lipid Storage Modulators in Drosophila S3 Cells;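 as to cell number change: cells counted by Cell Tracker Red CMTPX staining in the red channel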
Conditions: BODIPY lipid droplet fluorescence, 18-24 h; for cell number change: measured here: cell count max response, cells fed with added oleic acid
Outline: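 Drosophila S3 cells loaded with oleic acid (400 uM, as added) and compounds at several concentrations; lipid droplets imaged by 488-nm laser-scanning cytometry, 500–530 nm intensity and object ratio to cell channel. Percent activity normalized to 20 uM Triacsin C.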

[1] = measured here: lipid fluorescence (Fed channel) AC50, cells fed with added oleic acid
[2] = measured here: cell number channel AC50, cells fed with added oleic acid

Question: Which results are given for `NC(=O)CC(NC(=O)Cc1ccc(Br)cc1)c1ccc(N2CCC(Cc3ccccc3)CC2)c([N+](=O)[O-])c1` (configuration not stated)?
Answer: cell number change: -22.6%; AC50 [1]: 18.4 µM [falling, single point]

Question: For `COc1ccc(CCN(C)C(=O)CNC(=O)c2ccc3c(c2)OCO3)cc1OC`, which cell number change is on record?
Answer: 1.62%

Question: Which cell number change does the source give for `Cc1cc(C)cc(NC(=O)CSc2nccn2Cc2ccco2)c1` here?
Answer: 35.2%

Question: What about the AC50 [2] of the same compound?
Answer: 4.11 µM [rising, full curve]

Question: What about the AC50 [1] of the same compound?
Answer: 6.51 µM [rising, full curve, poor fit]

Question: For `CC(SCc1cn2cc(Cl)ccc2n1)C(=O)O` (configuration not stated), which cell number change is on record?
Answer: -14.6%

Question: With `COc1ccc(Cl)cc1NC(=O)COC(=O)c1ccc(Cl)nc1` as the compound, how does the cell number change read?
Answer: -5.1%

Question: And the AC50 [1]?
Answer: 6.51 µM [falling, single point]

Question: Which cell number change does the source give for `Cc1ccc(C)c(N2CCN(C(=O)c3ccc(CSc4nc5ccncc5[nH]4)cc3)CC2)c1` here?
Answer: -33.9%

Question: What about the AC50 [2] of the same compound?
Answer: 25.9 µM [falling, single point]

Question: What about the AC50 [1] of the same compound?
Answer: 2.31 µM [rising, full curve]

Question: What does the source list for `CSc1ccccc1OCc1cc(C(=O)N2CCN(c3ncccn3)CC2)no1`?
Answer: cell number change: -11.9%; AC50 [1]: 0.116 µM [rising, full curve, poor fit]

Question: With `COc1ccc(N2C(=O)CC(c3ccc(OC(C)C)cc3)C2=O)cc1` (configuration not stated) as the compound, how does the cell number change read?
Answer: 16.8%

Question: What about the AC50 [1] of the same compound?
Answer: 29.1 µM [rising, single point]

Question: Which cell number change does the source give for `COc1ccc(/C=C2\CN(Cc3ccccc3)C/C(=C\c3ccc(OC)c(O)c3)C2=O)cc1O` here?
Answer: 7.66%

Question: Which results are given for `Cc1ccc(CNC(=O)C2CCC(CNc3c(N4CCC(C)CC4)c(=O)c3=O)CC2)cc1` (configuration not stated)?
Answer: cell number change: 6.52%; AC50 [1]: 0.206 µM [falling, full curve]

Question: With `CCCn1c(N)c(C(=O)CSc2nnc(C)n2Cc2ccccc2)c(=O)n(C)c1=O` as the compound, how does the cell number change read?
Answer: 7.81%

Question: What about the AC50 [1] of the same compound?
Answer: 0.00461 µM [rising, full curve, poor fit]

Question: With `O=C(OCC(=O)N1CCN(C(=O)c2ccco2)CC1)c1ccccc1OCc1ccccc1` as the compound, how does the cell number change read?
Answer: 3.94%

Question: What about the AC50 [1] of the same compound?
Answer: 1.84 µM [rising, partial curve, poor fit]

Question: What does the source list for `CN(C)c1nc(OCCNC(=O)Nc2ccccc2)nc(N2CCCCC2)n1`?
Answer: cell number change: -23.8%; AC50 [1]: 16.4 µM [falling, partial curve]

Question: For `Cn1c(CN2CCCC2)nc2cc(NC(=O)Nc3ccccc3)ccc21`, which cell number change is on record?
Answer: 8.86%

Question: Which results are given for `O=C(/C=C/c1ccccc1)N(Cc1ccc(Cl)cc1)C1CCS(=O)(=O)C1` (configuration not stated)?
Answer: cell number change: 32.1%; AC50 [2]: 10.3 µM [rising, partial curve, poor fit]; AC50 [1]: 10.3 µM [rising, partial curve]

Question: With `O=C(Cc1cccc2ccccc12)OCn1nnc2ccccc2c1=O` as the compound, how does the cell number change read?
Answer: 0.858%

Question: What about the AC50 [2] of the same compound?
Answer: 1.3 µM [falling, partial curve]

Question: What about the AC50 [1] of the same compound?
Answer: 5.8 µM [falling, single point]

From PubChem BioAssay AID2685 (National Center for Advancing Translational Sciences (NCATS), 2010)
